Assay results published in PubChem BioAssay AID1487 (National Center for Advancing Translational Sciences (NCATS), 2009).
Some of the results follow. Shown are side measurements of this screen, not its main read-out; they come without a call. Compounds called inactive in the main read-out are mostly missing here. Potencies come from curve fits of mixed quality, noted in brackets.

Test: qHTS Assay for Modulators of Lamin A Splicing
Conditions: HeLa LMNA splicing GFP/RFP minigene ratio, 48 h
Method in brief: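 S3 HeLa cells stably expressing lamin A-EGFP splicing minigene plus DsRed2, 600 cells/well, 48 h compound exposure at 37C. Laser-scanning cytometry; analysed as GFP (500-530 nm)/RFP (575-640 nm) total intensity ratio; 0.5% DMSO vehicle.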

[1] = measured here: RFP viability control channel
[2] = measured here: GFP splicing reporter channel

Compound	AC50 [1]	AC50 [2]
CCNC(=O)C12CCC(C)(c3nc4cc(C)c(C)cc4nc31)C2(C)C (stereo not drawn)	3.55 µM [falling, full curve, poor fit]	
CCOCCCNC(=S)NCCCNc1nc2c(C)cc(C)cc2cc1C#N	0.0794 µM [falling, full curve]	0.0708 µM [falling, full curve, poor fit]
CCn1c(-c2csc(C(C)C)c2)n[nH]c1=S	0.00447 µM [falling, full curve, poor fit]	0.00501 µM [falling, full curve, poor fit]
CCOc1ccc2ncc(S(=O)(=O)c3ccc(C)cc3)c(N3CCC4(CC3)OCCO4)c2c1	11.2 µM [rising, single point]	
CN(C)/C=N/c1nc2nccc(-c3ccc(Cl)cc3)n2n1		15.8 µM [falling, single point]
COc1ccc2c(c1)c(CC(=O)O)c(C)n2Cc1ccc(Cl)cc1	0.00447 µM [falling, full curve, poor fit]	
COc1ccc(OC)c(/C=C/C(=O)OCC(=O)c2c(N)n(C)c(=O)n(C)c2=O)c1	2 µM [rising, full curve, poor fit]	
COC(=O)[C@@H](N)Cc1ccc(O)c(O)c1	7.94 µM [falling, partial curve, poor fit]	
CCc1ccc(C(=O)NNc2ccc(Cl)cc2)cc1		4.47 µM [rising, full curve, poor fit]
CC1=C(C(=O)Nc2ccccc2C)C(c2ccc(C)o2)NC(=S)N1 (stereo not drawn)		10 µM [falling, partial curve, poor fit]
O=C(CCc1ccccc1)NNc1ccc(F)cc1		0.891 µM [rising, partial curve]
CCOC(=O)N1CCC(NC(=O)c2cc(C(=O)Nc3ccc(OC)c(OC)c3)ccc2CO)CC1	14.1 µM [rising, single point]	35.5 µM [rising, single point]
CCOC(=O)C1=C(C)NC(C)=C(C(=O)OC)[C@@H]1c1cccc([N+](=O)[O-])c1	3.16 µM [falling, single point]	3.16 µM [falling, single point]
CCN(CC)S(=O)(=O)c1cc(NS(=O)(=O)c2cccc(Cl)c2)ccc1C	22.4 µM [rising, single point]	
Cc1ccc(OCC(=O)N/N=C/c2cn[nH]c2-c2ccc(Cl)c(Cl)c2)cc1	11.2 µM [rising, partial curve]	20 µM [rising, partial curve, poor fit]
COCCNC(=O)C(=O)NCC(c1cccnc1)N1CCN(c2ccccc2OC)CC1 (stereo not drawn)	35.5 µM [falling, single point]	28.2 µM [falling, single point]
COc1cc(C(=O)NCC(c2cccnc2)N2CCc3ccccc3C2)cc(OC)c1OC (stereo not drawn)	0.00794 µM [falling, full curve, poor fit]	
COc1ccc(S(=O)(=O)n2cnc3cc(C)c(C)cc32)cc1C	7.08 µM [rising, partial curve]	
S=c1[nH]nc(-c2ccc(Br)cc2)n1Cc1ccccc1	0.00794 µM [falling, full curve, poor fit]	14.1 µM [falling, single point]
CCC(CC)C(=O)OCC(=O)Nc1cc(OC)c([N+](=O)[O-])cc1C	17.8 µM [rising, partial curve, poor fit]	
O=c1oc2ccccc2nc1/C=C(O)/C=C\c1ccccc1	31.6 µM [rising, single point]	
c1ccc2cc(OCc3nc4ccccc4[nH]3)ccc2c1	31.6 µM [rising, single point]	
Cc1occc1-c1nnc(SCC(=O)Nc2ccccc2N2CCCCC2)n1C	35.5 µM [rising, single point]	
CNC(=O)C1CCN(Cc2cc3ccccc3n2Cc2ccccc2C)CC1	0.0562 µM [falling, full curve, poor fit]	35.5 µM [falling, single point]
Cc1cc(C(F)(F)F)nn2cnnc12	2.51 µM [falling, partial curve]	5.62 µM [falling, single point]
CCOCCCNC(=O)CCC(=O)NNc1nc2ccccc2c2nc(-c3ccccc3)nn12	1.58 µM [rising, partial curve, poor fit]	
COc1ccccc1C(=O)OCCCN=C1NS(=O)(=O)c2ccccc21	0.0891 µM [falling, full curve]	
CC(C)N(C(=O)COC(=O)[C@H](C)NC(=O)c1ccco1)c1ccccc1		0.0447 µM [falling, full curve, poor fit]

Compound	AC50 [1]	AC50 [2]
S=C(NC1CCCCC1)NN(c1ccccc1)c1ccccc1	25.1 µM [rising, partial curve]	35.5 µM [rising, single point]
COc1ccc(C2=[N+](C)CCn3cccc32)c(OC)c1	14.1 µM [rising, partial curve]	7.94 µM [rising, partial curve]
Cc1cc(Cl)c(S(=O)(=O)N2CCN(c3ccc(F)cc3)CC2)cc1OCC(=O)NC1CCCCC1	0.631 µM [rising, full curve]	0.562 µM [rising, full curve, poor fit]
Cc1cc(C)nc(NC2=NC3CCCCC3N2)n1 (stereo not drawn)	17.8 µM [rising, single point]	31.6 µM [rising, single point]
Cc1ccc(N2CCN(CCc3nc4cc(NC(=O)c5ccco5)ccc4n3C)CC2)cc1		5.62 µM [falling, single point]
CCOC(=O)c1cnc2c(C)cccc2c1NCCc1ccc(OC)c(OC)c1	14.1 µM [rising, single point]	
C=CCNC(=O)/C(C#N)=C/c1c(C)nn(-c2ccc(Cl)cc2)c1Cl	12.6 µM [rising, partial curve, poor fit]	
Cc1ccc2c(c1)c1c(n2CC(O)Cn2c(C)nc3ccccc32)CCCC1 (stereo not drawn)	12.6 µM [falling, partial curve]	14.1 µM [falling, single point]
Cc1ccc(NC(=O)Cc2ccc([N+](=O)[O-])cc2)c(Br)c1	5.01 µM [falling, full curve, poor fit]	
N#Cc1nc(COc2ccccc2)oc1N1CCC(Cc2ccccc2)CC1	0.708 µM [rising, full curve]	
COc1cccc(CNC(=O)CSCc2cnn(-c3ccccc3)c2-n2cccc2)c1	14.1 µM [rising, single point]	
O=C(C[n+]1cc(-c2ccccc2)n2c1CCC2)N1c2ccccc2Sc2ccccc21	15.8 µM [rising, single point]	11.2 µM [rising, single point]
O=C(/C=C/c1ccco1)NC(=S)Nc1cccc(-c2nc3ccccc3o2)c1	7.08 µM [falling, partial curve]	5.62 µM [falling, full curve]
CCOc1ccc(N=C(NN)c2ccc3ccccc3n2)cc1	12.6 µM [rising, partial curve]	3.55 µM [rising, partial curve]
Fc1ccccc1Sc1ccccc1CNC1=NCCN1	14.1 µM [rising, partial curve]	17.8 µM [rising, partial curve, poor fit]
COc1ccccc1N1CCN(C(=O)c2cnn(-c3ccc(C)c(C)c3)c2C2CCN(C(=O)OC(C)(C)C)CC2)CC1	31.6 µM [rising, single point]	
Cn1c(=O)n(Cc2ccc(F)cc2)c(=O)c2c1nc1n2CCCN1Cc1ccccc1	11.2 µM [rising, partial curve, poor fit]	
C/C(=N\NC(=S)NCCc1ccccc1)c1cccs1	11.2 µM [rising, partial curve]	
C=C(C)c1cccc(C(C)(C)NC(=O)Nc2ccc(C)cn2)c1	35.5 µM [rising, single point]	
CCOc1ccc(S(=O)(=O)N(CC(=O)NC2CCCCC2C)Cc2ccco2)cc1 (stereo not drawn)	15.8 µM [rising, single point]	8.91 µM [rising, partial curve]
CCOC(=O)c1c(C)oc2ncnc(NCCCN3CCN(c4cc(C)ccc4C)CC3)c12	20 µM [falling, single point]	15.8 µM [falling, single point]
CCCOc1ccc(C(=O)N(Cc2cccs2)c2ccc(C)cc2)cc1	4.47 µM [falling, partial curve]	2.51 µM [falling, partial curve]
COc1cccc(NS(=O)(=O)c2ccc(Br)s2)c1	14.1 µM [rising, single point]	
COc1cccc(N(C)C(=S)Oc2ccc3c(c2)CCCC3)n1	7.94 µM [rising, partial curve]	12.6 µM [rising, partial curve, poor fit]
CC1(C)CC(N2CCCC2)=CC(=[N+]2CCCC2)C1	20 µM [rising, single point]	
COCCNc1cc(C)c(C#N)c2nc3ccccc3n12	1.41 µM [rising, full curve]	
CCc1cc(-c2n[nH]c(=S)n2CC(C)C)cs1	31.6 µM [rising, single point]	11.2 µM [rising, single point]

Fetched by structure from the entries so far (three):
Compound	AC50 [1]	AC50 [2]
CCOc1ccc(S(=O)(=O)N(CC(=O)NC2CCCCC2C)Cc2ccco2)cc1 (stereo not drawn)	15.8 µM [rising, single point]	8.91 µM [rising, partial curve]
Cc1ccc(NC(=O)Cc2ccc([N+](=O)[O-])cc2)c(Br)c1	5.01 µM [falling, full curve, poor fit]	
S=c1[nH]nc(-c2ccc(Br)cc2)n1Cc1ccccc1	0.00794 µM [falling, full curve, poor fit]	14.1 µM [falling, single point]
